Results are given in words; binding and its absence hold for the method and conditions named. Some entries that bind do so weakly or less than the wild type.
Columns and labels:
[1] = target: HIV-gp160 (HIV-1 IIIB gp160) (HIV-1 (IIIB)) (UniProt P04578); assay: lectin blot: viral protein on SDS-PAGE, transferred to membrane, overlaid with 1.0 ug/ml rhMBP in Ca2+ buffer, detected with anti-human MBP polyclonal antibody
[2] = target: HIV-gp120 (HIV-1 IIIB gp120) (HIV-1 (IIIB)) (UniProt P04578); assay: as above

Chains of the proteins cited; added tags and fusions are not shown. Lines headed by an entry give the natural chain unless they say otherwise; changes in a name come on top.
UniProt P11226: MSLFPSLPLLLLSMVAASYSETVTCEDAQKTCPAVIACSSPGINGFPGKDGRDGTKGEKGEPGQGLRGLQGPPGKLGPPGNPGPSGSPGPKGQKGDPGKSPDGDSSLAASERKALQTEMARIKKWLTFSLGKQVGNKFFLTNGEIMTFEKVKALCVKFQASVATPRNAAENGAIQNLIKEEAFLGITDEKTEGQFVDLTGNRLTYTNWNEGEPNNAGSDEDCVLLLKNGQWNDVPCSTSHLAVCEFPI

## Recombinant Human Mannan-Binding Protein (rhMBP) (from UniProt P11226 21-248)
[1]
  binding: binds
[2]
  binding: binds

From patent US20030162248A1
